# Measurements as given in PMC7819943, “Rice protein-binding microarrays: a tool to detect cis-acting elements near promoter regions in rice”.
# By UniProt entry, the sequences of proteins in these tests, tags left out.
# UniProt Q0JBA9, entry or part of it: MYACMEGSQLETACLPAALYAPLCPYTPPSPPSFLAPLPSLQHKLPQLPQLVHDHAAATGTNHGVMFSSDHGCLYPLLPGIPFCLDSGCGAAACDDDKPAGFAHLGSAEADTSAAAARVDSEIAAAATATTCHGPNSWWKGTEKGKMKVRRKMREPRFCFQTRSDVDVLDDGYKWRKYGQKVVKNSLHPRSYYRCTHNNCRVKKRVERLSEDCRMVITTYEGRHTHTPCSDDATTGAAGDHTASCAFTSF
# Some of the results follow.
# Target: OsWRKY34 (Oryza sativa, UniProt Q0JBA9 1-250)
# Experiment: protein-binding microarray (RPBM); PBS, 2% BSA, 51.3 ng/ul salmon testes DNA, 50 uM zinc acetate, 200 nM TF, 25 C, 1 h; high values mean tight binding
# Conditions: protein: recombinant; tags: N-terminal polyhistidine and DsRed monomer fusion (pET32a); label: CyDye5-dUTP incorporated in the synthesized complementary strand; 3' TTTTT single-stranded linker to array surface; dsDNA, one strand shown
# Summary of the method: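 The binding signal is fluorescence intensity per feature, in arbitrary units, read on an Axon 4000B scanner. Polyhistidine- and DsRed-tagged transcription factors (N-terminal fusions) from E. coli BL21-CodonPlus were purified on Ni–NTA and applied at 200 nM for 1 h at 25 °C to a double-stranded, BSA-blocked custom Agilent array in buffer with 50 µM zinc acetate.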
row,Sequence,binding signal
1,GCAAAGTTTGCCGTTTGTGTCTGTCTCACTCACAAATCACCGGAGTCACCTAGTGCAG,8260 fluorescence intensity (a.u.)
2,GATCATTCCATGGTTTGGTTCCACCATTTGGACAGTCAACCGGAGTCACCTAGTGCAG,8200 fluorescence intensity (a.u.)
3,CGACAACGCCGTTGCCCTTGTCTATTTCATCCTTTACTGTCGGAGTCACCTAGTGCAG,9800 fluorescence intensity (a.u.)
4,TAGCAATAGCATTGAACCAAGCATGCCCACGGTCATATATCGGAGTCACCTAGTGCAG,8190 fluorescence intensity (a.u.)
5,ATCAACCTCACGTCATGCCCGGATCGGATCGATGATCACACGGAGTCACCTAGTGCAG,8560 fluorescence intensity (a.u.)
6,GAGCCATGGAACGCACGTGAGGTTTCGCTTTTGCCTGCACCGGAGTCACCTAGTGCAG,8630 fluorescence intensity (a.u.)
7,TATCCTTAATTTGTTTCTCCATTCTCTGATCTTATCTTTTCGGAGTCACCTAGTGCAG,8440 fluorescence intensity (a.u.)
8,GGCTTTTCGTGTCTTCTGTGTAAGGTTTTGCCGGTTTTCCCGGAGTCACCTAGTGCAG,9650 fluorescence intensity (a.u.)
9,CTTAACTCACTGTGAATGTGGTGACGTCTTTTTCCTCTTGCGGAGTCACCTAGTGCAG,10200 fluorescence intensity (a.u.)
10,CGCCTTCCGGCCGTACGCGTCCCGCCGCTCCATGCCTGACCGGAGTCACCTAGTGCAG,8150 fluorescence intensity (a.u.)
11,AACTGTATGCAATATATCCTCCTGTTCCTTTTCCCAGCTTCGGAGTCACCTAGTGCAG,10400 fluorescence intensity (a.u.)
12,CCTCCACCACCAATTTGGACTCTGCCGCTACGCCTCCTCCCGGAGTCACCTAGTGCAG,8430 fluorescence intensity (a.u.)
13,ATGGTCAAACACGTACTTAAAAAATCATCGGTGTCAAACACGGAGTCACCTAGTGCAG,8870 fluorescence intensity (a.u.)
14,CATGATATCTTCATTGTACATTTTTGTCACGCTCTCGTCACGGAGTCACCTAGTGCAG,9230 fluorescence intensity (a.u.)
15,ACCCGCACTGTGACCGGCCTTATATTAGACATTTTGCTCACGGAGTCACCTAGTGCAG,12100 fluorescence intensity (a.u.)
16,CGTTGGAACGTGCGGGTGTGGGGAAACTGAGGGTGAGGATCGGAGTCACCTAGTGCAG,8600 fluorescence intensity (a.u.)
17,TACGGTTTTTTTTGTTAGAGTGGCTTATCTAACCATCACTCGGAGTCACCTAGTGCAG,9840 fluorescence intensity (a.u.)
18,AGGCCACCATGGTTTGATTCCCACCATCCTCATTCTTTTACGGAGTCACCTAGTGCAG,10100 fluorescence intensity (a.u.)
19,CATTTACTTTTTAAAAACATTTTGCTATCTAAATTCGCGTCGGAGTCACCTAGTGCAG,9930 fluorescence intensity (a.u.)
20,GATATAGTTGTTCCCTGTTTGTCATTTTTCGCATGCATAACGGAGTCACCTAGTGCAG,13800 fluorescence intensity (a.u.)
21,GCTCCCATCCGTACTACAGCATACGTGGCGGCATCTGTCCCGGAGTCACCTAGTGCAG,8240 fluorescence intensity (a.u.)

# Taken from above:
# binding signal, TATCCTTAATTTGTTTCTCCATTCTCTGATCTTATCTTTTCGGAGTCACCTAGTGCAG reads 8440 fluorescence intensity (a.u.)
# binding signal, CTTAACTCACTGTGAATGTGGTGACGTCTTTTTCCTCTTGCGGAGTCACCTAGTGCAG reads 10200 fluorescence intensity (a.u.)

# More records.

row,Sequence,binding signal
1,TTTCTTCCCTTAATTACATCACCGTTGGGCATAAAATAATCGGAGTCACCTAGTGCAG,9920 fluorescence intensity (a.u.)
2,AAAGACTCTCCCGGTTCTTCTACCGTTCTACGCCACCAAACGGAGTCACCTAGTGCAG,8310 fluorescence intensity (a.u.)
3,AAAGGTTAAACGTTTGTTAAAAGTCAACGCGTCATATATTCGGAGTCACCTAGTGCAG,10600 fluorescence intensity (a.u.)
4,GAACGCCGCCACCTACTCCCACTGCCACGTGGGCCCACATCGGAGTCACCTAGTGCAG,8330 fluorescence intensity (a.u.)
5,CGCCCCGTCATCGCCGCGGCCGGCCACCGTCACCGCCACCCGGAGTCACCTAGTGCAG,9140 fluorescence intensity (a.u.)
6,TCAAGGCACACTTCCTTTTGACTGAGTGTCCAGTTGTTGCCGGAGTCACCTAGTGCAG,8520 fluorescence intensity (a.u.)
7,TGGATTGGTGCTCGCTTTTTTTTTTCTCTCTCCTTTTTTCCGGAGTCACCTAGTGCAG,16300 fluorescence intensity (a.u.)
8,GCAACCAACACGCGCACCACCACCTCGTCGAGCGCTCGGCCGGAGTCACCTAGTGCAG,9600 fluorescence intensity (a.u.)
9,ATGTTAGTGGGCCCACATTTATGTTTTTTTAATTTTTATACGGAGTCACCTAGTGCAG,8180 fluorescence intensity (a.u.)
10,GCTGTGGCGGAGGTGGGGAGGTGGAGGTGGAGGGGAGATGCGGAGTCACCTAGTGCAG,24600 fluorescence intensity (a.u.)
11,TCACTTTTTTTTCCATTCATTGTATGATTTCTTCTATTATCGGAGTCACCTAGTGCAG,10900 fluorescence intensity (a.u.)
12,GAGGTTTTTTCTGACGGTTGTATCACAGGATCACACAGTACGGAGTCACCTAGTGCAG,11700 fluorescence intensity (a.u.)
13,GGAGCTATTATTATTATTATATTATATTTTGAATGCTTTGCGGAGTCACCTAGTGCAG,8050 fluorescence intensity (a.u.)
14,GGACGAGCGCGCGAGAATAATTGTGGTGTGCTTTGACCGGCGGAGTCACCTAGTGCAG,8300 fluorescence intensity (a.u.)
15,GATATTTTGCTTGCTATGTTTGACTATTCGTCTTATTTTACGGAGTCACCTAGTGCAG,13500 fluorescence intensity (a.u.)
16,CTGACCACCAACAGGGTCACTGTCGCGTTTGCTCGATACTCGGAGTCACCTAGTGCAG,9920 fluorescence intensity (a.u.)
17,AGAATTATGTGTTTTTTATACCTTTATTTTTTTCGATCCTCGGAGTCACCTAGTGCAG,9800 fluorescence intensity (a.u.)
18,CCTCCTTTTTTGCTCTTTATTCCTTTGCCTACTTGCTGCTCGGAGTCACCTAGTGCAG,13400 fluorescence intensity (a.u.)
19,CCAATTCTATCATACACACTATTCATTTCATTCTTTTTTTCGGAGTCACCTAGTGCAG,11000 fluorescence intensity (a.u.)
20,ATATTTCTCAACACACGACTAGCAATTGGTTGTGTTTGACCGGAGTCACCTAGTGCAG,8210 fluorescence intensity (a.u.)
21,GCCGCGTTCGCTTTCATGGTTTCCTGTACTACTAATACTACGGAGTCACCTAGTGCAG,10400 fluorescence intensity (a.u.)

row,Sequence,binding signal
1,GCAAAGCTAGTGAAAAGTCCAAAATAAAACACCGGTAGTTCGGAGTCACCTAGTGCAG,10800 fluorescence intensity (a.u.)
2,CAGTTTTCGTTAGTGTTTTGTTTGGTTTGGTTCGTGCTGTCGGAGTCACCTAGTGCAG,13100 fluorescence intensity (a.u.)
3,GCGATGGGAGGTGGGCGACGCGAGGGAGAGGGGAGAGGGGCGGAGTCACCTAGTGCAG,18500 fluorescence intensity (a.u.)
4,CCTCTTTCCTTCTTCTCTTCCCGTTGACTCCGCAGTTGCCCGGAGTCACCTAGTGCAG,9160 fluorescence intensity (a.u.)
5,TTATATTTTGGGACGGAGTATTACTTTGAATCCCTTTTCCCGGAGTCACCTAGTGCAG,8280 fluorescence intensity (a.u.)
6,GTCTCCATCTCTTTTACCTCAGTCTCGCGTATATCTTAGTCGGAGTCACCTAGTGCAG,12800 fluorescence intensity (a.u.)
7,ATACCCTTGAATTGAGTTGGCCCACCCCTGCCCATGACCACGGAGTCACCTAGTGCAG,8380 fluorescence intensity (a.u.)
8,CGCGTCGTGCTCGTCTCTCTTTGCTTCTTCCAGCTCCAGACGGAGTCACCTAGTGCAG,9520 fluorescence intensity (a.u.)
9,TCTTTCTCTTTCTACACCATGGCTTTTCGCTTTCATTTAGCGGAGTCACCTAGTGCAG,10500 fluorescence intensity (a.u.)
10,GGTCGGCGGGAGGGCGGGAGAGGAGCAGCGGCGCACGGGGCGGAGTCACCTAGTGCAG,12400 fluorescence intensity (a.u.)
11,CGCCTGTTTGGACACCTATATACCAGAGTCGTGGGGCTTGCGGAGTCACCTAGTGCAG,8590 fluorescence intensity (a.u.)
12,CTTTTTTCTCTGCGGGTTCTTCAATTATTCAGGGTTTCTTCGGAGTCACCTAGTGCAG,16800 fluorescence intensity (a.u.)
13,TTTCTATTTGACTATTTATATTCCAAATTAGTCATTTATCCGGAGTCACCTAGTGCAG,9460 fluorescence intensity (a.u.)
14,AACGATATTGTCTATGCATATTGCTTCCTTTGTCCTTACTCGGAGTCACCTAGTGCAG,10400 fluorescence intensity (a.u.)
15,CTAGGTCTGTCCTTATGTCAGTATGTGTGTCTGGATTATTCGGAGTCACCTAGTGCAG,9600 fluorescence intensity (a.u.)
16,AATTTTGTCGGGGCCGATTATAGTTGACTACTAGCACATACGGAGTCACCTAGTGCAG,9570 fluorescence intensity (a.u.)
17,AGCGAGGAAGGAGGAGGTGGGGAAGAGTAGTTCATAGATCCGGAGTCACCTAGTGCAG,8240 fluorescence intensity (a.u.)
18,AGTCAAAAGTCGAATTTTGCCTGACATGTTTCTTTACATACGGAGTCACCTAGTGCAG,9490 fluorescence intensity (a.u.)
19,TTTCTTGCGCCATTTCCCACCGCCGCCGCCGCCGCCCGCGCGGAGTCACCTAGTGCAG,9500 fluorescence intensity (a.u.)
20,TTCACAATGTAAGCCATTCTAGCATTTTCCATATTTATATCGGAGTCACCTAGTGCAG,8240 fluorescence intensity (a.u.)
21,CCTTGGTGCCATTTTCTGCAGTATGTCATGCAATCTTTGTCGGAGTCACCTAGTGCAG,9260 fluorescence intensity (a.u.)

# Some of the entries above in a different format:
row	Sequence	binding signal
1	GCAAAGCTAGTGAAAAGTCCAAAATAAAACACCGGTAGTTCGGAGTCACCTAGTGCAG	10800 fluorescence intensity (a.u.)
2	CAGTTTTCGTTAGTGTTTTGTTTGGTTTGGTTCGTGCTGTCGGAGTCACCTAGTGCAG	13100 fluorescence intensity (a.u.)

# (further entries)

row,Sequence,binding signal
1,CAAGCGATCGATCGTCCACACGCACGGCCGCACCGCATCGCGGAGTCACCTAGTGCAG,8380 fluorescence intensity (a.u.)
2,TTTTTCTGTTAGATGATTTTTTTTTCCTGGACAATTATCTCGGAGTCACCTAGTGCAG,8220 fluorescence intensity (a.u.)
3,CATCATCACTCCCTCGTCGCTGTCGTTGTTGTCATCGTTCCGGAGTCACCTAGTGCAG,10400 fluorescence intensity (a.u.)
4,CTGTATTTTCCTAATCATAATTTTTTAGGCTCCTTATTGTCGGAGTCACCTAGTGCAG,8240 fluorescence intensity (a.u.)
5,TGTACACGCAGCATCCTACATGTCTTCTTCCTCTGTCCGTCGGAGTCACCTAGTGCAG,8230 fluorescence intensity (a.u.)
6,TAAATGTAGTTTGACTTTTTTGTTTACTGCATACTGTTGACGGAGTCACCTAGTGCAG,14300 fluorescence intensity (a.u.)
7,GGTGGCGGCGGGGTTGGTCCACTCGAAGAGCTCGGCGGTGCGGAGTCACCTAGTGCAG,13400 fluorescence intensity (a.u.)
8,TTGCCCATCTCGTCGTCTTCATCGCCGTTCGAGCTTCAACCGGAGTCACCTAGTGCAG,12900 fluorescence intensity (a.u.)
9,TGCACCAACGGTCAACTGAAACATTTGACCGTCCTATTTTCGGAGTCACCTAGTGCAG,11600 fluorescence intensity (a.u.)
10,GGGCTCATCTTCACCGTTGTCATTCAGTTATTCACATAAGCGGAGTCACCTAGTGCAG,10300 fluorescence intensity (a.u.)
11,CAACCGCCTCCGCGCGCGGCCCGTCGCCATCGTCGAGCACCGGAGTCACCTAGTGCAG,10300 fluorescence intensity (a.u.)
12,AACCATTCTATTCCACTACAAATCATCGGCCAAAATTACCCGGAGTCACCTAGTGCAG,8300 fluorescence intensity (a.u.)
13,GCAGTCCACCACTTGGCCCGTCACTCTCGAAAATGCTGAGCGGAGTCACCTAGTGCAG,12100 fluorescence intensity (a.u.)
14,GAAGCTGTTCTCCATCTTCTCCTCGTCGTCGTCCTCGTCGCGGAGTCACCTAGTGCAG,8220 fluorescence intensity (a.u.)
15,GTTGAGGGACCCGCTGGATCTGGTTTTTGATTGAAGGATACGGAGTCACCTAGTGCAG,8800 fluorescence intensity (a.u.)
16,TAATTATTAATTCTTTTCCTATCATTTGATTCATTGTTAACGGAGTCACCTAGTGCAG,8280 fluorescence intensity (a.u.)
17,AAAGCCTATAACATTATTACTATGTTCATTTATCTACAATCGGAGTCACCTAGTGCAG,8270 fluorescence intensity (a.u.)
18,CCGCCCGATCCACCCAAGAACTGCCGATTTCGCCGGCTCGCGGAGTCACCTAGTGCAG,8440 fluorescence intensity (a.u.)
19,CCACCGCCACCTCCATGCCCAAGCATCGCATCAAGCCGCTCGGAGTCACCTAGTGCAG,9970 fluorescence intensity (a.u.)
20,ATGAAGCCATCTTTGTCCAAACATCTTTTTTTCTGTCGCGCGGAGTCACCTAGTGCAG,11200 fluorescence intensity (a.u.)
21,CCGTTTCATATTTAAATTGTTTTGACTTTTTTATAGTTAACGGAGTCACCTAGTGCAG,8140 fluorescence intensity (a.u.)
